Measurements: patent US7232559B1, “Diagnostic agents for pancreatic exocrine function” (Tokyo Gas Company Limited, priority 1999, dated 2007)

Legend:
[1] = system: chronic pancreatitis rats and control (normal) rats; test: ^13C-breath test (Δ^13C in exhaled CO2 after oral administration); type: in vivo, rat
Protocol: A model of chronic pancreatitis in rats were prepared by injecting oleic acid into the pancreatic duct (Mundlos et al., Pancreas 1:29 (1986)). After overnight fast, a Wistar male rat of 5 weeks old was anesthetized by intraperitoneal administration of Nembutal (50 mg/kg). The abdominal wall was shaved and the rat was fixed supinely on an operating table. An Isodine solution was applied to sterilize, and a 3 to 4 cm midline incision was made on the abdomen. The duodenum and the pancreas were drawn out and a 25 G needle was pierced through the duodenal wall. A polyethylene cannula (PE-10) was inserted through the pierced hole into the duodenum and further inserted into the common bile duct by about 5 mm from the papilla. The inserted cannula was fixed by a microclip. Further, the biliary duct was closed by a microclip in order to prevent oleic acid from flowing into the liver. Oleic acid (50 μl) was injected at a rate of 20 μl/min by a microsyringe pump. After the injection was completed, the rat was allowed to stand for 2 minutes so that the oleic acid was distributed throughout the pancreas. The microclips and cannula were removed and the duodenum was returned. The endothelium was sutured with silk thread (Nescosuture silk suture thread 3-0, Nihon Shoji KK) and the outer skin was sutured with a skin stapler (Appose ULC, No. 8034-12, 5.7×3.8 mm). As a control, only laparotomy was carried out. These rats subjected to the operation were kept under free intake of standard food and water at 23° C., relative humidity of 55% until use.
The rat of 9 weeks old was fixed without anesthesia in a rat holder for a microwave irradiation apparatus. […]
Δ^13C (‰) was calculated from the ^13C concentration in the exhaled CO2 at each time point (^13C tmin) and the ^13C concentration in standard CO2 (^13C std) according to the following equation: Δ^13C (‰)=[(^13C tmin−^13C 0min)/^13C std]×1000

[2] = system: chronic pancreatitis rats and control rats; test: PFD test (BT-PABA orally, PABA excretion rate in urine); type: in vivo, rat; details: specificity 100%
Protocol: The rats of the model of chronic pancreatitis and control rats, which were kept for 3 to 4 weeks after the operation, were made to fast from 9:00 AM. At 4:00 PM, 3 mg/ml of BT-PABA (PFD solution for internal use, Eisai) was orally administered in an amount of 15 mg/kg. Urine was collected for 16 hours until 9:00 AM of the next day. The amount of the collected urine and the PABA concentration in the urine were determined using a PABA measuring kit to determine the excretion rate in urine (PFD test).

In the case of Bz-DL-Phe-(^13C-Leu), the “sensitivity of breath test (cut off set such that specificity is 100%)” value ([1]; Δ^13C value at 10 minutes as check value, 250 mg/kg oral, chronic pancreatitis n=8, control n=4) is reported as 100%.

For Bz-Gly-(^13C-Leu), the “sensitivity of breath test (cut off set such that specificity is 100%)” value ([1]; Δ^13C value at 18 minutes as check value, 50 mg/kg oral, chronic pancreatitis n=10, normal n=10) was 80%.

With Bz-Ala-(^13C-Ala) the “sensitivity of breath test (cut off set such that specificity is 100%)” value ([1]; Δ^13C value at 10 minutes as check value, 50 mg/kg oral, chronic pancreatitis n=8, normal n=7) was 88%.

`O=C(O)c1ccc(NC(=O)[C@H](Cc2ccc(O)cc2)NC(=O)c2ccccc2)cc1` [PFD, N-benzoyl-L-tyrosyl-p-aminobenzoic acid] was tested, and the “sensitivity in the PFD test” value ([2]; same group of rats as Bz-Ala-(^13C-Ala) breath test) was 63%, the “sensitivity in the PFD test” value ([2]; same group of rats as Bz-DL-Phe-(^13C-Leu) breath test, BT-PABA 15 mg/kg oral) was 50% and the “sensitivity in the PFD test” value ([2]; same group of rats as Bz-Gly-(^13C-Leu) breath test) was 50%.
